The experiment addresses BRG1 (SMARCA4) (human (endogenous in HeLa)) (UniProt P51532). The experiment can be described thus: co-IP.

Amino acid sequences for entries named in this document (tags omitted).
UniProt P51532: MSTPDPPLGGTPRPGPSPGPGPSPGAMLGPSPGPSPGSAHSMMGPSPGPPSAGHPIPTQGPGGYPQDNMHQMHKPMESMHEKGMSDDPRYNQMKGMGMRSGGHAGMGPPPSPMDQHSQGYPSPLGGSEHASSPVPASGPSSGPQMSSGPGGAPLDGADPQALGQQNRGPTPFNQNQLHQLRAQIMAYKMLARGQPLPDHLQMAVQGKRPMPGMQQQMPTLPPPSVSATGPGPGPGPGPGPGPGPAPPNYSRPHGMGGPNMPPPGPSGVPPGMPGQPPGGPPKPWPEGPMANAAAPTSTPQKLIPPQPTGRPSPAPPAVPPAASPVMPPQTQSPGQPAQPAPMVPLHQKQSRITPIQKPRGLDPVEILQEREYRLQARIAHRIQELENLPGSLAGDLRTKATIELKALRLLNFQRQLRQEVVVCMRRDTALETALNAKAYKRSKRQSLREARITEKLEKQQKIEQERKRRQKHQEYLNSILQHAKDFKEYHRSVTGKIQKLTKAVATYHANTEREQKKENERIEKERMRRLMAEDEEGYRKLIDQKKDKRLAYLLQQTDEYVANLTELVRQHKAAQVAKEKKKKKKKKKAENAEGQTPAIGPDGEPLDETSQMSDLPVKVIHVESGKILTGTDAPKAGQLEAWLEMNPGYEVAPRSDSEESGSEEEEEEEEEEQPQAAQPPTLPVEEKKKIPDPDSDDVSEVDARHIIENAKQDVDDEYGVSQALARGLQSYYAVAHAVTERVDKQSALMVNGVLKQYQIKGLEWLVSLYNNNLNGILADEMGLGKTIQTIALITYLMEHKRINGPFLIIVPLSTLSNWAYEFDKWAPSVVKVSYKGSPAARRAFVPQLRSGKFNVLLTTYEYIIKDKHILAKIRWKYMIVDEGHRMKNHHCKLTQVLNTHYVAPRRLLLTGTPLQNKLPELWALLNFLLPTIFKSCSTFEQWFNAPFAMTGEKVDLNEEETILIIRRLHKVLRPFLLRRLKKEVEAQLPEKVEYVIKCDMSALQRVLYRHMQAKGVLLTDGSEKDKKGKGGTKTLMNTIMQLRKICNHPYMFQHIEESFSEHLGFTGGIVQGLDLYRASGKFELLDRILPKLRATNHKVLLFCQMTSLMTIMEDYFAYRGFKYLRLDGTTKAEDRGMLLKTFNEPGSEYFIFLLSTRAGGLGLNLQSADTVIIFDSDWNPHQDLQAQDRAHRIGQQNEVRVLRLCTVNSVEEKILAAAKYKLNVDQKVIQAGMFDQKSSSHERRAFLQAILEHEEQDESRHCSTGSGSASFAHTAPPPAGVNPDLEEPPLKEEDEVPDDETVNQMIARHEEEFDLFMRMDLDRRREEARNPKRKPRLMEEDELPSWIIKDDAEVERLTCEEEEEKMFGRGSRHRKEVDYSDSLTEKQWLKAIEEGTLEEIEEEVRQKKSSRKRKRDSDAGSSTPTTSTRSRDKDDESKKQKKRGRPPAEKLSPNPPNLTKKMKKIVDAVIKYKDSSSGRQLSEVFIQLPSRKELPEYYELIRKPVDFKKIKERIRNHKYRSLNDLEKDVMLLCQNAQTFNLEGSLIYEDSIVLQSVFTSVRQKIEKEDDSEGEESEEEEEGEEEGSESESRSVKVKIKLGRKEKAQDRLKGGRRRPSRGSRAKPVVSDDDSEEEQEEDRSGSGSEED
UniProt P53350: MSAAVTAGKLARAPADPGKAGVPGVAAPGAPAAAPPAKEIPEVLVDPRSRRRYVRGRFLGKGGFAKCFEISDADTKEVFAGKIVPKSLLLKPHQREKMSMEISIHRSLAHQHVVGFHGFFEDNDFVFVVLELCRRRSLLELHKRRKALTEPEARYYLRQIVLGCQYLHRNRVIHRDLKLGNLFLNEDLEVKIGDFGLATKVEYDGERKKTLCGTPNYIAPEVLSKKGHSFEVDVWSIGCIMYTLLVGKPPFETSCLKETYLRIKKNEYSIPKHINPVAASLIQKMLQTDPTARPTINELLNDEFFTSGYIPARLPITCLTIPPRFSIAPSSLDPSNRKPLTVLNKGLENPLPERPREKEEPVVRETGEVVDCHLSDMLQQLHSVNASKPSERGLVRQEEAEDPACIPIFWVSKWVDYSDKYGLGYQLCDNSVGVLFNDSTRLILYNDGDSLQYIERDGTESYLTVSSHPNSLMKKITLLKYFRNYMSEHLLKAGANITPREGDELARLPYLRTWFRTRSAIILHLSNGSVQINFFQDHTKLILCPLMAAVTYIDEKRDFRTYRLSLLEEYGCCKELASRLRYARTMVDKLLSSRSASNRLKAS

No constants are given. Whether binding was seen depends on the method and setting. Binding seen in cells or lysates may run through a third protein. Some entries that bind do so weakly or less than the wild type.

With PLK1 (from UniProt P53350 1-603), the binding entry is reported as “binds”.
